These are yes or no findings as the source states them, for the method shown. In cells and extracts the contact can be indirect.
Target: insulin-like growth factor 2 mRNA-binding protein 1 (IGF2BP1), endogenous in mouse embryonic fibroblasts (mouse (endogenous in MEF)) (UniProt O88477)
Assay: co-IP; lysate in polysome lysis buffer (10 mM Hepes pH 7.0, 5 mM MgCl2, 100 mM KCl, 0.5% NP-40) incubated with anti-IMP-1 antibody and protein G paramagnetic particles at 4 °C; immunoprecipitate purified by IFAST; bound and unbound fractions analysed by Western blotting

The chains behind the UniProt entries cited, without tags or fusion partners.
UniProt O88477: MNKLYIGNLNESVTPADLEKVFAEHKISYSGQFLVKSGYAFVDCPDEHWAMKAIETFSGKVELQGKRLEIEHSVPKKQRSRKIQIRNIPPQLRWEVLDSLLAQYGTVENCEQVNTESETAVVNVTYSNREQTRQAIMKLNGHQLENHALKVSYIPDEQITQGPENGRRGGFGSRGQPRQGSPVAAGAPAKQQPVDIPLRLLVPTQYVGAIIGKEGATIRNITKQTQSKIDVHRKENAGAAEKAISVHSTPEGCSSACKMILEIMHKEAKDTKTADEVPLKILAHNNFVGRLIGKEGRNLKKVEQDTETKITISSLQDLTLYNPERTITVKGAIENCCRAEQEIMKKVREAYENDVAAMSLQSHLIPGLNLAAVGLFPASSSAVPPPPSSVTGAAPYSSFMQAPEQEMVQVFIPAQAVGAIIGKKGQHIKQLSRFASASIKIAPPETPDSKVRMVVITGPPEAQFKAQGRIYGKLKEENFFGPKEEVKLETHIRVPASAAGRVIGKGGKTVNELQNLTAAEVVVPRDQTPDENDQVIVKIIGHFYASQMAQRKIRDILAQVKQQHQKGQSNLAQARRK

B1: Vinculin, endogenous in mouse embryonic fibroblasts (protein, UniProt Q64727 1-1066)
chain: MPVFHTRTIESILEPVAQQISHLVIMHEEGEVDGKAIPDLTAPVAAVQAAVSNLVRVGKETVQTTEDQILKRDMPPAFIKVENACTKLVQAAQMLQSDPYSVPARDYLIDGSRGILSGTSDLLLTFDEAEVRKIIRVCKGILEYLTVAEVVETMEDLVTYTKNLGPGMTKMAKMIDERQQELTHQEHRVMLVNSMNTVKELLPVLISAMKIFVTTKNSKNQGIEEALKNRNFTVEKMSAEINEIIRVLQLTSWDEDAWASKDTEAMKRALASIDSKLNQAKGWLRDPNASPGDAGEQAIRQILDEAGKVGELCAGKERREILGTCKMLGQMTDQVADLRARGQGASPVAMQKAQQVSQGLDVLTAKVENAARKLEAMTNSKQSIAKKIDAAQNWLADPNGGPEGEEQIRGALAEARKIAELCDDPKERDDILRSLGEIAALTSKLGDLRRQGKGDSPEARALAKQVATALQNLQTKTNRAVANSRPAKAAVHLEGKIEQAQRWIDNPTVDDRGVGQAAIRGLVAEGHRLANVMMGPYRQDLLAKCDRVDQLTAQLADLAARGEGESPQARALASQLQDSLKDLKAQMQEAMTQEVSDVFSDTTTPIKLLAVAATAPPDAPNREEVFDERAANFENHSGRLGATAEKAAAVGTANKSTVEGIQASVKTARELTPQVISAARILLRNPGNQAAYEHFETMKNQWIDNVEKMTGLVDEAIDTKSLLDASEEAIKKDLDKCKVAMANIQPQMLVAGATSIARRANRILLVAKREVENSEDPKFREAVKAASDELSKTISPMVMDAKAVAGNISDPGLQKSFLDSGYRILGAVAKVREAFQPQEPDFPPPPPDLEQLRLTDELAPPKPPLPEGEVPPPRPPPPEEKDEEFPEQKAGEVINQPMMMAARQLHDEARKWSSKGNDIIAAAKRMALLMAEMSRLVRGGSGTKRALIQCAKDIAKASDEVTRLAKEVAKQCTDKRIRTNLLQVCERIPTISTQLKILSTVKATMLGRTNISDEESEQATEMLVHNAQNLMQSVKETVREAEAASIKIRTDAGFTLRWVRKTPWYQ
- binding: no binding

Reference: paper PMC8891971
